Data as given in US20170022503A1.
No constants are given. Whether binding was seen depends on the method and setting. A result given as binding can be weak or reduced; the word gives no strength. For some of these results: Binding seen in cells or lysates may run through a third protein.

Tests used:
[1] = molecular target: T1, WARS (cytoplasmic tryptophan tRNA synthetase) (human) (UniProt P23381); experiment: flag immunoprecipitation from transfected HUVEC cells, blot for WARS
T1 sequence (looked up): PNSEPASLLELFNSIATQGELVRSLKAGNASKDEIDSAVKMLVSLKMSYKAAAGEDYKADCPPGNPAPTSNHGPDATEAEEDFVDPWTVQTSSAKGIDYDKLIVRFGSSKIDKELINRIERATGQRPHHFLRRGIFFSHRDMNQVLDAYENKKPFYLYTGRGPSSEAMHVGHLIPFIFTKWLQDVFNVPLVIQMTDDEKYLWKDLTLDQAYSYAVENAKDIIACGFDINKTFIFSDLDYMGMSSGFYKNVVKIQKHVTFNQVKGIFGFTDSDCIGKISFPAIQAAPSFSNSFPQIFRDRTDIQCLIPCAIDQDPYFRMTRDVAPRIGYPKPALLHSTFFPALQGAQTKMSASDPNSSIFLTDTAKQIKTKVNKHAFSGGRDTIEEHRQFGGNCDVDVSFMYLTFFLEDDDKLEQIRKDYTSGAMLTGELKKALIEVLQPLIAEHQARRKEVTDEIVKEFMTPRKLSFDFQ

[2] = molecular target: T1, WARS (cytoplasmic tryptophan tRNA synthetase) (human); experiment: co-immunoprecipitation in HUVEC cells
[3] = molecular target: T1, WARS (cytoplasmic tryptophan tRNA synthetase) (human); experiment: co-immunoprecipitation (summary of the experiments)

Substance | binding [1] | binding [2] | binding [3]
flag-tagged WARS2(L53F) mutant (human) (enzyme) | binds | – | –
flag-tagged wild type WARS2 (human mitochondrial tryptophan tRNA synthetase) (enzyme) | binds | binds | binds
